Test results: article PMC7947244
Results are given in words; binding and its absence hold for the method and conditions named.

Sequences of proteins named here, by UniProt entry; tags and fusion partners are left off.
UniProt Q9QUR7: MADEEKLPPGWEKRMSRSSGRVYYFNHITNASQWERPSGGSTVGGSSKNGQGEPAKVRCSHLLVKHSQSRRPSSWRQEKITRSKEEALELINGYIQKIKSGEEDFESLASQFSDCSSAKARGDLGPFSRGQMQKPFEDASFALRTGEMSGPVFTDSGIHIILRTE

Target: GST-Pin1 (UniProt Q9QUR7)
Assay: pull-down; GST-Pin1 held on Glutathione Sepharose 4B beads; p38 phosphopeptide T180(p) added and incubated overnight at 4 °C; washed three times with PBS, eluted with reduced glutathione (50 mM Tris pH 8.0); eluate spotted on PVDF or NC membrane and read by dot blot with a primary antibody; both purified

TDDEMTGYVATRW (phosphothreonine at 180 (T180(p))) [p38 phosphopeptide (TDDEMT(p)GYVATRW), phosphorylated at threonine 180]
binding: no binding
